The values that follow come from the supplement of paper PMC11732987, “Enantioselective OTUD7B fragment discovery through chemoproteomics screening and high-throughput optimisation” (Communications Chemistry, 2025).

The chains behind the UniProt entries cited, without tags or fusion partners. Where a name states a change or a piece, a line headed by the entry shows the natural chain unless it says otherwise. Residues count along the entry.
UniProt P63165, whole entry, looked up: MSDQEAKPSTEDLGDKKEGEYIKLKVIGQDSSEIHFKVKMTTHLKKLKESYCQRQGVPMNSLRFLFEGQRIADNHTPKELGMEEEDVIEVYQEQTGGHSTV
UniProt Q658P3: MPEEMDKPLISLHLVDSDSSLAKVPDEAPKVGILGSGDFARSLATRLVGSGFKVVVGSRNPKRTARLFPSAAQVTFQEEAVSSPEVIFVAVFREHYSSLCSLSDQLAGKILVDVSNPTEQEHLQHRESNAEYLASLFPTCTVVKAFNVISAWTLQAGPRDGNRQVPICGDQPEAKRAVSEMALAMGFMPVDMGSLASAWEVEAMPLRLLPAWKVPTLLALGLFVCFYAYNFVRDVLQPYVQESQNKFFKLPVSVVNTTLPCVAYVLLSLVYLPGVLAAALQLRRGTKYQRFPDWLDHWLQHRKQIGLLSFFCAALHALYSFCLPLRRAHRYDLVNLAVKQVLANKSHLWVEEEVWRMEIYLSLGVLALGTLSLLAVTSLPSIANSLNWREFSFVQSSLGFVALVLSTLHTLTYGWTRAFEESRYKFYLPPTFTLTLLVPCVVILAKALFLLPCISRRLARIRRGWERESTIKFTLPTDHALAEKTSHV
UniProt Q9GZT4: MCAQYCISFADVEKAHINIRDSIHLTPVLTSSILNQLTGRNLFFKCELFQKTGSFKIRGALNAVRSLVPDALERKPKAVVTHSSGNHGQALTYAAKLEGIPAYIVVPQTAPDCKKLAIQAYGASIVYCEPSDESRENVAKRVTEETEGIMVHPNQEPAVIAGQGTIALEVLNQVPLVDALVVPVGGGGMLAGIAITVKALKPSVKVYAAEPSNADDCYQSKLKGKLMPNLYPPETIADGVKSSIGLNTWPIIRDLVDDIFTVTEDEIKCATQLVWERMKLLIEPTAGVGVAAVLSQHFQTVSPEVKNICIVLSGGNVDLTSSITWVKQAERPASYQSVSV
UniProt Q8NFX7: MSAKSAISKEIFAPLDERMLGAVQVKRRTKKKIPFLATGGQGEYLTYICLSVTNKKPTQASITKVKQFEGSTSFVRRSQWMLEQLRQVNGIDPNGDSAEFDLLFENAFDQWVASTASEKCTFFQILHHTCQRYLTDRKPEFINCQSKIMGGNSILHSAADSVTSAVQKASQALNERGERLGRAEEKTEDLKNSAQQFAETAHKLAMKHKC
UniProt Q9Y2H1: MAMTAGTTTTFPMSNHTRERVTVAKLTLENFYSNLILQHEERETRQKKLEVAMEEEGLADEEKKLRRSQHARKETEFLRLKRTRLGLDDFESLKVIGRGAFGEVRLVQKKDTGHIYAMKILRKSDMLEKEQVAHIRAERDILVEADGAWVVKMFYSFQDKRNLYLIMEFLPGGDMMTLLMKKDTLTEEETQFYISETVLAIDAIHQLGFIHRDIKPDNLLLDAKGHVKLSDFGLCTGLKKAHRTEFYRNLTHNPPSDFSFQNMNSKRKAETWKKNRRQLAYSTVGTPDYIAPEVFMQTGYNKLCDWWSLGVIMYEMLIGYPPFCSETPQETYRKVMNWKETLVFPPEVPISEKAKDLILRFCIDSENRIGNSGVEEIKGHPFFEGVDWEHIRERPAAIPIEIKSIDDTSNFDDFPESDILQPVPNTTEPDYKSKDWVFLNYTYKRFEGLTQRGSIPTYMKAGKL
UniProt Q13586, 31-50: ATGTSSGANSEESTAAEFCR
UniProt Q76I76, 793-818: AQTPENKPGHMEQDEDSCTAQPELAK
UniProt Q8N2I9: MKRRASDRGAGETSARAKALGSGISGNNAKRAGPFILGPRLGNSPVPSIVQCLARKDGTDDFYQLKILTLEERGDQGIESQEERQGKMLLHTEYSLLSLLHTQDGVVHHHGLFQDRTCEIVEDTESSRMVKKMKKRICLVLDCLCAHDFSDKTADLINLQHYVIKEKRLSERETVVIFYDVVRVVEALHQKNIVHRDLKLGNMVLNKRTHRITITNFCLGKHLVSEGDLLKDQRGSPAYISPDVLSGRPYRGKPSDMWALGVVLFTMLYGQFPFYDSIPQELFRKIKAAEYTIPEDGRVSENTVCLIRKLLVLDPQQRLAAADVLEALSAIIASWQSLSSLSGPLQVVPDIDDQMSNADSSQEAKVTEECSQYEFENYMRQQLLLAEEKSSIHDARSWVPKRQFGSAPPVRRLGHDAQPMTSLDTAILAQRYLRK
UniProt Q96EA4: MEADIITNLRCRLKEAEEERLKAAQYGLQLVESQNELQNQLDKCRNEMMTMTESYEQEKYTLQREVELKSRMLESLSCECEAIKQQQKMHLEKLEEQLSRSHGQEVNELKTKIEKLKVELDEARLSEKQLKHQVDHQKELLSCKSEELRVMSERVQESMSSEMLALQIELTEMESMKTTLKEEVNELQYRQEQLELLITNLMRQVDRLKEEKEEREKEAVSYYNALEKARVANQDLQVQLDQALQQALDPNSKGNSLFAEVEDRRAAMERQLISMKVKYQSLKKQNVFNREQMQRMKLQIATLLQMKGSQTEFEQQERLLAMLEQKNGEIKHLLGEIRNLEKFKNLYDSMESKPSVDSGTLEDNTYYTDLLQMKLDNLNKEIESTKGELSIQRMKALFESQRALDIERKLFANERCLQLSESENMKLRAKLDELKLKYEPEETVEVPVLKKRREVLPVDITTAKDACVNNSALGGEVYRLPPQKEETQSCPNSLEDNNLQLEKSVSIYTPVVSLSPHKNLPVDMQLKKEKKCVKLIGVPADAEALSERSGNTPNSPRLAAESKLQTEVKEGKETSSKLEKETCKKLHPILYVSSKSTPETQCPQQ
UniProt Q92797: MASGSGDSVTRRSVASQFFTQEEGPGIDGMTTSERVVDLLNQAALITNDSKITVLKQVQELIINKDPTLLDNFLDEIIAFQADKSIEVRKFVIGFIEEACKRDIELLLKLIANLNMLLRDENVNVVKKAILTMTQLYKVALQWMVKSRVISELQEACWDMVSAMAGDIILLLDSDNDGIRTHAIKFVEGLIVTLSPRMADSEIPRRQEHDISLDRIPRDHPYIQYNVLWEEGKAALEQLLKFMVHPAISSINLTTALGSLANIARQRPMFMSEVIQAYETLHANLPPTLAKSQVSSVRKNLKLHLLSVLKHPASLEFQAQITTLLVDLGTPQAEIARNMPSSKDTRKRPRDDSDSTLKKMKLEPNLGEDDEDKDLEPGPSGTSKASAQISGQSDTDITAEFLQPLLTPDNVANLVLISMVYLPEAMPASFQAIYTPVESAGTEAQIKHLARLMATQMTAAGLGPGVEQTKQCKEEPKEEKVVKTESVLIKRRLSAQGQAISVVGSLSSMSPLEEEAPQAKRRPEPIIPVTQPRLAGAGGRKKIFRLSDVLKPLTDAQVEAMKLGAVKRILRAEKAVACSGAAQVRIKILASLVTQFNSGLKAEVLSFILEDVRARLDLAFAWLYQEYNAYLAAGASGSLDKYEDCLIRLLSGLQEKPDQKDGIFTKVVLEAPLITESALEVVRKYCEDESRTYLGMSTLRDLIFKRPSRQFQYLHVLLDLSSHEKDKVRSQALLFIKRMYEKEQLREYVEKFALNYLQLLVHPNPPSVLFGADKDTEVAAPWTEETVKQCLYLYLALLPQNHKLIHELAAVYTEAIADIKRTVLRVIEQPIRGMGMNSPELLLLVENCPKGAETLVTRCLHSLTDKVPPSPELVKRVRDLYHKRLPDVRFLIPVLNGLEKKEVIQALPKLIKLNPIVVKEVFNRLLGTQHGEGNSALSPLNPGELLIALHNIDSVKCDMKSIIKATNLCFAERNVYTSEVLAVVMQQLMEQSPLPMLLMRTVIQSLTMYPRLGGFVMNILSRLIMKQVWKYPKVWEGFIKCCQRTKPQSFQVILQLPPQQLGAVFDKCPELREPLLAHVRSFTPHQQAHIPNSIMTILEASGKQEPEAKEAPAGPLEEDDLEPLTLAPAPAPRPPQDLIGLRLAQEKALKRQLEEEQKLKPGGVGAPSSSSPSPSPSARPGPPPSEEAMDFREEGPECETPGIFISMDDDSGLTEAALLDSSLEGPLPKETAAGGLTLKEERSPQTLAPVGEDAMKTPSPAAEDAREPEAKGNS
UniProt Q8N5C6: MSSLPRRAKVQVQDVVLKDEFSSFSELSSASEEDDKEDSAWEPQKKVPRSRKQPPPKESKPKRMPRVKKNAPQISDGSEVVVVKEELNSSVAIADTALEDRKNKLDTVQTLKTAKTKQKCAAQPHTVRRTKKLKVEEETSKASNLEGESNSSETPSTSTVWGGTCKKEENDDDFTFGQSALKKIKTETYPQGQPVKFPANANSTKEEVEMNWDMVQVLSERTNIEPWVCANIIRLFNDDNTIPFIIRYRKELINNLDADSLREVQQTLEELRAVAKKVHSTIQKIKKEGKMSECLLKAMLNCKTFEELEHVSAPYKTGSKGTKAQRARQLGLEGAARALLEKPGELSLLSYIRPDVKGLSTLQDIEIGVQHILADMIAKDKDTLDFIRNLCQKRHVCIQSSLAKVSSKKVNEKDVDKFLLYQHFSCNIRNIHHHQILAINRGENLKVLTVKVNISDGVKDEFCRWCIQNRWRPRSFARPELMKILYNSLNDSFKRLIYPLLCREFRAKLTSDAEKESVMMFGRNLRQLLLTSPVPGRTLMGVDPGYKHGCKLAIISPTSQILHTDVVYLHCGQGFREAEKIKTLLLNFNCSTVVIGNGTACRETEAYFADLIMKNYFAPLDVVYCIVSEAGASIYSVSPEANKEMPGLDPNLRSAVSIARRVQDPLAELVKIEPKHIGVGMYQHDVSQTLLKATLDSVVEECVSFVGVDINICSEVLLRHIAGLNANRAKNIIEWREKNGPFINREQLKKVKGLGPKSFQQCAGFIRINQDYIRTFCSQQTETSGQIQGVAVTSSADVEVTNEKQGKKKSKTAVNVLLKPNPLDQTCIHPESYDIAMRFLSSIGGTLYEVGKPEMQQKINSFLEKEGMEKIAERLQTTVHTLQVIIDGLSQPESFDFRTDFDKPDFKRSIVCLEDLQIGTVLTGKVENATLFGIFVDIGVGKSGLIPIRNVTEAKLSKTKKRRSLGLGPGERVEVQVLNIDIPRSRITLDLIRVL
UniProt Q9Y2D8: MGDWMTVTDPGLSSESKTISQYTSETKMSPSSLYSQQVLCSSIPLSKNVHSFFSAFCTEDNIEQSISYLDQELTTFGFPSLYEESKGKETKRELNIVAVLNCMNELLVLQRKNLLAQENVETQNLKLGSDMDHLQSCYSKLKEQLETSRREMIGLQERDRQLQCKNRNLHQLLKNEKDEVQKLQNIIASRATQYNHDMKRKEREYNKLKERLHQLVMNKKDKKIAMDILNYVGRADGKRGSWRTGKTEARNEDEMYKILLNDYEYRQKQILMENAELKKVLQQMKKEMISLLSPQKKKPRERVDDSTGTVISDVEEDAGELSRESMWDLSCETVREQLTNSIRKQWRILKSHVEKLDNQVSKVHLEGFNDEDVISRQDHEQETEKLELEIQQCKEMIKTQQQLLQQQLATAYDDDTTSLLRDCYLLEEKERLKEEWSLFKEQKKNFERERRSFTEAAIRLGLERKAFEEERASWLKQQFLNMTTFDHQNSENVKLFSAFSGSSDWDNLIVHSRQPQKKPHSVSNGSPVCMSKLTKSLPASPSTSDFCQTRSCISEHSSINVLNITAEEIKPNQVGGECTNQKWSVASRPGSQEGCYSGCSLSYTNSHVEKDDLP
UniProt Q69YQ0, 77-97: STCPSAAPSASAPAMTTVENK
UniProt P19623, 114-135: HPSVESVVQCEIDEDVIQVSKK
UniProt Q6NVH7: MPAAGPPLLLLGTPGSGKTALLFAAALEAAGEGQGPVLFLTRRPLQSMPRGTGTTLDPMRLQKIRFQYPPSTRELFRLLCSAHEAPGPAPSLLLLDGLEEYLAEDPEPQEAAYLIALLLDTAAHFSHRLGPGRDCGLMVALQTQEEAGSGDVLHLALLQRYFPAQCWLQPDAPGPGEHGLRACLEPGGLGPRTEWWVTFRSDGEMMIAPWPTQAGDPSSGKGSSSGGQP
UniProt Q13190, 23-58: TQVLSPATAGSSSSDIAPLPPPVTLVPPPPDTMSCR
UniProt O00186: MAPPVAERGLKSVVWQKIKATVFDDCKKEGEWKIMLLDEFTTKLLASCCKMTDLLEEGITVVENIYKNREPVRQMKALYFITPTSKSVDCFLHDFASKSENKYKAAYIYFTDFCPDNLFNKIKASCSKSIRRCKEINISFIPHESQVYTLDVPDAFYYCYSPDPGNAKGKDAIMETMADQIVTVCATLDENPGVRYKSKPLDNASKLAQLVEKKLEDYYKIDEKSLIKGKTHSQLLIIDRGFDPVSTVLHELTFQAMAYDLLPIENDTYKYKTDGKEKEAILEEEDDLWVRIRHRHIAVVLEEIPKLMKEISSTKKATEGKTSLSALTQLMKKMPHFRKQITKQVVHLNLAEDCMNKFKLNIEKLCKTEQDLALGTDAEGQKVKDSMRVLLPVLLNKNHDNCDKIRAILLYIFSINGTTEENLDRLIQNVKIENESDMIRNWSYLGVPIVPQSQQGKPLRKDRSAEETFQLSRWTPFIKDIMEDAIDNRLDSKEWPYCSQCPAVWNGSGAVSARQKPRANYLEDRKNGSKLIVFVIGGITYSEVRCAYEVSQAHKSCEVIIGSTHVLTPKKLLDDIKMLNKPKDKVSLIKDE

The other results are listed elsewhere or left out. The data scatter; read single values as rough.

Compound in one experiment: ClCC(=O)N[C@@H]1CCCc2ccccc12
The experiment is described as follows: log2 mean competition ratio of IA-DTB cysteine labelling (DMSO/compound) (log2 ratio); higher = stronger cysteine engagement by compound. The following applies: 50 µM; treatment time: 4 h; cell line lysate: HEK293T. On the procedure:
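IA-DTB competitive cysteine chemoproteomics in HEK293T RIPA lysate. Lysates were treated with compound 29 or 30 at 50 or 200 µM for 4 h, then IA-DTB (500 µM, 1 h), trypsin-digested, NeutrAvidin-enriched and analysed by diaPASEF. Competition ratio = intensity DMSO / intensity compound (n=4 treated, n=64 DMSO); binding: mean log2 CR ≥ 1 and p ≤ 0.05 plus QC filters. Target is the cysteine site.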
For the target SUMO1 C52 (UniProt P63165), the “log2 mean competition ratio” value was 0.247.

As for STEAP3 C168 (UniProt Q658P3), the “log2 mean competition ratio” value was -0.362.

SRR C217 (UniProt Q9GZT4): the “log2 mean competition ratio” value is -0.138.

As for STXBP6 C144 (UniProt Q8NFX7), the “log2 mean competition ratio” value was 0.0416.

For the target STK38L C362 (UniProt Q9Y2H1), the “log2 mean competition ratio” value was -0.0466.

As to STK10 C722 (UniProt O94804), the “log2 mean competition ratio” value turned out to be 0.339.

With SPTBN2 C2043 (UniProt O15020), the “log2 mean competition ratio” value came to 0.249.

Take STIM1 C49 (UniProt Q13586): the “log2 mean competition ratio” value was -0.377.

Turning to SUCLA2 C384 (UniProt Q9P2R7), the “log2 mean competition ratio” value was 0.32.

For the target SWT1 C127, the “log2 mean competition ratio” value was -0.282.

In the case of SSH2 C810 (UniProt Q76I76), the “log2 mean competition ratio” value is -0.164.

As for SPRY1 C305 (UniProt O43609), the “log2 mean competition ratio” value is 0.0534.

Take STARD7 C362 (UniProt Q9NQZ5): the “log2 mean competition ratio” value is -0.0403.

SPTAN1 C1930 (UniProt Q13813): the “log2 mean competition ratio” value is 0.00866.

With STK40 C305 (UniProt Q8N2I9), the “log2 mean competition ratio” value was -0.455.

Take SRSF6 C121 (UniProt Q13247): the “log2 mean competition ratio” value was 0.0256.

For the target SRGAP1 C603 (UniProt Q7Z6B7), the “log2 mean competition ratio” value was -0.0586.

For SPEN C2398 (UniProt Q96T58), the “log2 mean competition ratio” value was -0.418.

As for SUN1 C499 (UniProt O94901), the “log2 mean competition ratio” value came out at 0.0577.

For the target SPDL1 C490 (UniProt Q96EA4), the “log2 mean competition ratio” value is 0.119.

Regarding SYMPK C578 (UniProt Q92797), the “log2 mean competition ratio” value amounted to 0.0731.

In the case of SRBD1 C463 (UniProt Q8N5C6), the “log2 mean competition ratio” value was 0.0121.

As for SYNRG C1194 (UniProt Q9UMZ2), the “log2 mean competition ratio” value was -0.199.

For the target SRP54 C36 (UniProt P61011), the “log2 mean competition ratio” value was -0.0498.

Regarding SRBD1 C229 (UniProt Q8N5C6), the “log2 mean competition ratio” value is 0.00877.

On to SYNE3 C51, for which the “log2 mean competition ratio” value is -0.304.

With SSX2IP C137 (UniProt Q9Y2D8), the “log2 mean competition ratio” value is 0.226.

As for SPECC1L C79 (UniProt Q69YQ0), the “log2 mean competition ratio” value is -0.138.

As for STAU2 C140 (UniProt Q9NUL3), the “log2 mean competition ratio” value was 0.52.

Regarding STK4 C80 (UniProt Q13043), the “log2 mean competition ratio” value is -0.0734.

As for SRM C123 (UniProt P19623), the “log2 mean competition ratio” value was -0.106.

For the target STK24 C394, the “log2 mean competition ratio” value is -0.00504.

In the case of SWSAP1 C183 (UniProt Q6NVH7), the “log2 mean competition ratio” value was -0.0417.

As for SRSF1 C16 (UniProt Q07955), the “log2 mean competition ratio” value is -0.209.

For the target STIP1 C26, the “log2 mean competition ratio” value came out at 0.0991.

For the target STX5 C57 (UniProt Q13190), the “log2 mean competition ratio” value was 0.211.

Turning to STXBP3 C354 (UniProt O00186), the “log2 mean competition ratio” value was -0.175.

Still in this experiment, the particulars now being: 200 µM; treatment time: 4 h; cell line lysate: HEK293T.
In the case of SUMO1 C52 (UniProt P63165), the “log2 mean competition ratio” value is -0.238.

STEAP3 C168 (UniProt Q658P3): the “log2 mean competition ratio” value stood at 0.0586.

With SRR C217 (UniProt Q9GZT4), the “log2 mean competition ratio” value was 0.0622.

STXBP6 C144 (UniProt Q8NFX7): the “log2 mean competition ratio” value was -0.197.

As for STK38L C362 (UniProt Q9Y2H1), the “log2 mean competition ratio” value worked out at 0.0239.

In the case of STK10 C722 (UniProt O94804), the “log2 mean competition ratio” value was -0.201.

Turning to SPTBN2 C2043 (UniProt O15020), the “log2 mean competition ratio” value was -0.174.

On to STIM1 C49 (UniProt Q13586), for which the “log2 mean competition ratio” value was 0.248.

With SUCLA2 C384 (UniProt Q9P2R7), the “log2 mean competition ratio” value is -0.0308.

Turning to SWT1 C127, the “log2 mean competition ratio” value is -0.0291.

Turning to SSH2 C810 (UniProt Q76I76), the “log2 mean competition ratio” value is -0.049.

Take SPRY1 C305 (UniProt O43609): the “log2 mean competition ratio” value stood at 0.224.

For STARD7 C362 (UniProt Q9NQZ5), the “log2 mean competition ratio” value was found to be 0.309.

As for SPTAN1 C1930 (UniProt Q13813), the “log2 mean competition ratio” value was -0.00336.

In the case of STK40 C305 (UniProt Q8N2I9), the “log2 mean competition ratio” value was found to be 0.193.

As for SRSF6 C121 (UniProt Q13247), the “log2 mean competition ratio” value was -0.119.

For the target SRGAP1 C603 (UniProt Q7Z6B7), the “log2 mean competition ratio” value was -0.32.

On to SPEN C2398 (UniProt Q96T58), for which the “log2 mean competition ratio” value is -0.0114.

In the case of SUN1 C499 (UniProt O94901), the “log2 mean competition ratio” value was -0.0142.

As to SPDL1 C490 (UniProt Q96EA4), the “log2 mean competition ratio” value was -0.392.

Turning to SYMPK C578 (UniProt Q92797), the “log2 mean competition ratio” value was 0.0121.

For the target SRBD1 C463 (UniProt Q8N5C6), the “log2 mean competition ratio” value was -0.0695.

With SYNRG C1194 (UniProt Q9UMZ2), the “log2 mean competition ratio” value is -0.239.

Turning to SRP54 C36 (UniProt P61011), the “log2 mean competition ratio” value was -0.211.

Take SRBD1 C229 (UniProt Q8N5C6): the “log2 mean competition ratio” value turned out to be 0.00508.

SYNE3 C51: the “log2 mean competition ratio” value is -0.202.

SSX2IP C137 (UniProt Q9Y2D8): the “log2 mean competition ratio” value came to 0.239.

With SPECC1L C79 (UniProt Q69YQ0), the “log2 mean competition ratio” value was -0.0954.

In the case of STAU2 C140 (UniProt Q9NUL3), the “log2 mean competition ratio” value is -0.36.

Regarding STK4 C80 (UniProt Q13043), the “log2 mean competition ratio” value is -0.247.

In the case of SRM C123 (UniProt P19623), the “log2 mean competition ratio” value is -0.131.

In the case of STK24 C394, the “log2 mean competition ratio” value is -0.0803.

Turning to SWSAP1 C183 (UniProt Q6NVH7), the “log2 mean competition ratio” value worked out at 0.0271.

As to SRSF1 C16 (UniProt Q07955), the “log2 mean competition ratio” value was -0.0115.

For STIP1 C26, the “log2 mean competition ratio” value stood at 0.145.

As to STX5 C57 (UniProt Q13190), the “log2 mean competition ratio” value turned out to be 0.151.

Regarding STXBP3 C354 (UniProt O00186), the “log2 mean competition ratio” value is 0.507.
